Among the data in PMC9305541 are binding values, retold here.

These are yes or no findings as the source states them, for the method shown. Some entries that bind do so weakly or less than the wild type. For some assays here: Tags and fused reporters may be left off the sequences shown.

The target of assay [1] is Arabidopsis thaliana catalase 2 (CAT2), endogenous in wild type (Col-0) leaves (Arabidopsis thaliana (endogenous in Col-0 leaves)) (UniProt P25819). Put plainly: native gel or EMSA; leaf extracts of 4-week-old plants (20 µg total protein; 100 mM Tris-HCl pH 8.0, 20% glycerol, 30 mM DTT) on 7.5% native PAGE, room temperature; western blot with anti-catalase antibody and in-gel activity assay.

Assay [2] has as its target CAT2^PSI, untagged wild type AtCAT2 sequence expressed from the CAT2 promoter in the cat2-1 mutant (Arabidopsis thaliana) (UniProt P25819). The assay is described as above.

B1: Arabidopsis thaliana catalase 2 (CAT2), endogenous in wild type (Col-0) leaves (enzyme, UniProt P25819 1-492)
chain: MDPYKYRPASSYNSPFFTTNSGAPVWNNNSSMTVGPRGPILLEDYHLVEKLANFDRERIPERVVHARGASAKGFFEVTHDISNLTCADFLRAPGVQTPVIVRFSTVIHERGSPETLRDPRGFAVKFYTREGNFDLVGNNFPVFFIRDGMKFPDMVHALKPNPKSHIQENWRILDFFSHHPESLNMFTFLFDDIGIPQDYRHMDGSGVNTYMLINKAGKAHYVKFHWKPTCGVKSLLEEDAIRVGGTNHSHATQDLYDSIAAGNYPEWKLFIQIIDPADEDKFDFDPLDVTKTWPEDILPLQPVGRMVLNKNIDNFFAENEQLAFCPAIIVPGIHYSDDKLLQTRVFSYADTQRHRLGPNYLQLPVNAPKCAHHNNHHEGFMNFMHRDEEVNYFPSRYDQVRHAEKYPTPPAVCSGKRERCIIEKENNFKEPGERYRTFTPERQERFIQRWIDALSDPRITHEIRSIWISYWSQADKSLGQKLASRLNVRPSI
B1: the binding result in assay [1] is recorded as “binds”.

B2: CAT2^PSI, untagged wild type AtCAT2 sequence expressed from the CAT2 promoter in the cat2-1 mutant (enzyme, UniProt P25819 1-492)
chain: B1 chain
B2: in assay [2], the binding entry is recorded as “binds”.
